The source of these data is the supplement of paper PMC10735217.

Where a name gives a salt, the structure may show the parent alone. The list shows a part of the results. Single values are uncertain here, since repeats match poorly.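 The human kidney-derived cells carry a stably integrated construct of eight TEAD-binding elements driving luciferase, read by luminescence in a drug-repurposing library screen. A compound counts as a hit when its signal is more than five robust Z scores above the plate mean.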

This test relates to HEK293A TEAD-LUC reporter. Put plainly: TEAD-luciferase reporter activity (YAP activation), robust Z score vs plate; higher = stronger YAP/TEAD activation. The settings on record: 24 h. On the technique in general: In a reporter assay the amount or activity of a reporter protein is the signal.

As to `O=C(Nc1cnn2ccc(N3CCCC3c3cc(F)ccc3F)nc12)N1CC[C@H](O)C1` (stereo partly drawn), the TEAD-luciferase reporter activity is, setting by setting: (compound concentration: 200 nM) inactive: 0.173; (compound concentration: 2 uM) inactive: -1.15; (compound concentration: 10 uM) inactive: 2.83.
On the same counts, the results for `COCCCCCCCCCN1C[C@H](O)[C@@H](O)[C@H](O)[C@H]1CO` are inactive: -0.0249, inactive: 0.927 and inactive: -0.615.
Taken in the same sequence, the figures for `Nc1nc(-n2cc(C(=O)O)c(=O)c3cc(F)c(N4CC(O)C4)c(Cl)c32)c(F)cc1F` [delafloxacin] were inactive: -1.49, inactive: -0.441 and inactive: 1.69.
Consider `CC(C)C(NC(=O)C(CO)NC(=O)C(CCCNC(=N)N)NC(=O)C(Cc1ccccc1)NC(=O)CC1CCCCC1)C(=O)NC(CCC(N)=O)C(N)=O` (stereo not drawn), for which the TEAD-luciferase reporter activity runs as follows: (compound concentration: 200 nM) inactive: -0.891; (compound concentration: 2 uM) inactive: 1.35; (compound concentration: 10 uM) inactive: 4.64.
Taken in the same sequence, the figures for `Cc1ccncc1N1CCN(c2ccnc(Cl)c2)C1=O` were inactive: 0.132, inactive: -0.12 and inactive: 0.602.
Taken in the same sequence, the figures for `Cc1cccc(O[C@@H]2CCNC[C@@H]2O)c1C` were inactive: -1.64, inactive: -0.587 and inactive: -0.796.
Taken in the same sequence, the figures for `COc1ccc(-c2cc3nccn3c(Nc3ncccc3C(N)=O)n2)cc1OC` [BAY 61-3606 dihydrochloride] were inactive: -0.185, inactive: 4.09 and inactive: -2.64.
On to `C[N+]1(CCCCC[N+]2(C)CCCC2)CCCC1`, for which the TEAD-luciferase reporter activity by setting is: (compound concentration: 200 nM) inactive: 1.33; (compound concentration: 2 uM) inactive: 0.369; (compound concentration: 10 uM) inactive: 1.58.
Take `Cc1ccccc1-n1ccnc1S(=O)CCCOc1ccc2c(c1)CCC(=O)N2` (stereo not drawn): the TEAD-luciferase reporter activity is inactive: -2.16 (compound concentration: 200 nM), inactive: -0.377 (compound concentration: 2 uM) and inactive: 1.38 (compound concentration: 10 uM).
Taken in the same sequence, the figures for `COc1cccc2c1C(=O)c1c(O)c3c(c(O)c1C2=O)C[C@@](O)(C(=O)CO)C[C@@H]3O[C@@H]1C[C@@H](N)[C@H](O)[C@@H](C)O1` [Epirubicin HCl] were inactive: 1.53, inactive: 1.06 and inactive: -1.42.
Taken in the same sequence, the figures for `Fc1ccc(-c2cncc(CNCC3CCc4ccccc4O3)c2)cc1` (stereo not drawn) were inactive: -0.241, inactive: 1.57 and inactive: -0.828.
On the same counts, the results for `CCCCCCOc1ccccc1C(N)=O` [exalamide] are inactive: -0.543, inactive: -1.81 and inactive: -0.513.
`C[C@@H]1CN(C(=O)c2ccc(NC(=O)c3cc(O[C@H](C)c4c(Cl)ccc(F)c4Cl)c(N)nn3)cc2)C[C@H](C)N1` [Ensartinib]: the TEAD-luciferase reporter activity is, setting by setting: (compound concentration: 200 nM) inactive: -1.84; (compound concentration: 2 uM) inactive: -1.97; (compound concentration: 10 uM) inactive: -1.1.
`Cc1ncc2c(c1O)COC2(C)c1ccc(Cl)cc1` (stereo not drawn): the TEAD-luciferase reporter activity is inactive: 0.0805 (compound concentration: 200 nM), inactive: 0.682 (compound concentration: 2 uM) and inactive: 1.45 (compound concentration: 10 uM).
As for `CC1(C)S[C@@H]2[C@H](NC(=O)[C@H](NC(=O)N3CCN(S(C)(=O)=O)C3=O)c3ccccc3)C(=O)N2[C@H]1C(=O)O` [mezlocillin], the TEAD-luciferase reporter activity (compound concentration: 200 nM) is inactive: -0.451, the TEAD-luciferase reporter activity (compound concentration: 2 uM) is inactive: -1.04 and the TEAD-luciferase reporter activity (compound concentration: 10 uM) was inactive: -0.614.
For the molecule `CN[C@@H]1[C@H](O[C@H]2[C@H](O[C@@H]3[C@@H](O)[C@H](O)[C@@H](NC(=N)N)[C@H](O)[C@H]3NC(=N)N)O[C@@H](C)[C@]2(O)CO)O[C@@H](CO)[C@H](O)[C@H]1O`, the TEAD-luciferase reporter activity runs as follows: (compound concentration: 200 nM) inactive: 4.74; (compound concentration: 2 uM) inactive: -0.345; (compound concentration: 10 uM) inactive: 0.13.
On the same counts, the results for `N#Cc1cccc(COc2ccc(N3CC(CO)OC3=O)cc2)c1` (stereo not drawn) are inactive: -0.693, inactive: 0.112 and inactive: -0.713.
Taken in the same sequence, the figures for `C=CCN1CCN(CC(C)(C)COC(=O)C2=C(C)NC(C)=C(C(=O)OC)C2c2cccc([N+](=O)[O-])c2)CC1` (stereo not drawn) were inactive: -0.715, inactive: -1.76 and inactive: -1.41.
On the same counts, the results for `NC(=O)c1csc([C@@H]2O[C@H](CO)C(O)C2O)n1` (stereo partly drawn) [tiazofurin] are inactive: -0.813, inactive: -0.122 and inactive: -0.047.
As to `O=C(CNC(=O)c1ccc(-c2cccc(C(F)(F)F)c2)cc1)NC1CCCC1`, the TEAD-luciferase reporter activity by setting is: (compound concentration: 200 nM) inactive: 1.43; (compound concentration: 10 uM) inactive: 0.167.
For the molecule `CN[C@@H](C)C(=O)N[C@H](C(=O)N1CCC[C@H]1C(=O)Nc1snnc1-c1ccccc1)C1CCCCC1`, the TEAD-luciferase reporter activity by setting is: (compound concentration: 200 nM) inactive: 2.1; (compound concentration: 2 uM) inactive: 1.18; (compound concentration: 10 uM) inactive: 0.798.
On the same counts, the results for `CCC1NC(=O)c2cc(S(N)(=O)=O)c(Cl)cc2N1` (stereo not drawn) [Quinethazone] are inactive: -0.809, inactive: -0.233 and inactive: 1.9.
With `CN1C(=O)CC(C)(c2ccccc2)C1=O` (stereo not drawn) [Methsuximide], the TEAD-luciferase reporter activity reads like this: (compound concentration: 200 nM) inactive: 1.17; (compound concentration: 2 uM) inactive: -0.0783; (compound concentration: 10 uM) inactive: 3.29.
On the same counts, the results for `NC(=O)c1nnn(Cc2cc(Cl)c(C(=O)c3ccc(Cl)cc3)c(Cl)c2)c1N` [CAI orotate] are inactive: -0.762, inactive: -0.632 and inactive: 0.674.
As to `CN(CC1COCCO1)S(=O)(=O)Nc1ccc2ccc3ncc(-c4cnn(C)c4)cc3c(=O)c2c1` (stereo not drawn) [c-Met inhibitor, Merck], the TEAD-luciferase reporter activity is inactive: -0.236 (compound concentration: 200 nM), inactive: -1.48 (compound concentration: 2 uM) and inactive: -1.64 (compound concentration: 10 uM).
Taken in the same sequence, the figures for `CC(NNC(=O)c1ccccc1)c1ccccc1` (stereo not drawn) were inactive: -0.522, inactive: 0.69 and inactive: 2.07.
On the same counts, the results for `CC(C)(C)c1cc(/C=C2\SC(=O)NC2=O)cc(C(C)(C)C)c1O` are inactive: -2.04, inactive: -0.271 and inactive: -0.642.
On the same counts, the results for `C[C@H](NC(=O)Cc1ccccc1)C(=O)Nc1ccc(C2S/C(=N\c3cccc(F)c3)N(Cc3cccs3)C2=O)cc1` (stereo partly drawn) are inactive: -1.54, inactive: 1.27 and inactive: -0.401.
On to `COc1cc(-c2ccc(=O)[nH]n2)ccc1OC(F)F` [Zardaverine], for which the TEAD-luciferase reporter activity (compound concentration: 200 nM) is inactive: -0.427, the TEAD-luciferase reporter activity (compound concentration: 2 uM) is inactive: -1.48 and the TEAD-luciferase reporter activity (compound concentration: 10 uM) was inactive: -0.284.
On the same counts, the results for `N=C(N)c1ccc(OCCCOc2ccc(C(=N)N)cc2Br)c(Br)c1` are inactive: 4.03, inactive: -0.289 and inactive: -0.464.
On to `CC(C)(C)c1ccc2c(c1)CC[C@H]2NC(=O)Nc1cccc2[nH]ncc12`, for which the TEAD-luciferase reporter activity reads like this: (compound concentration: 200 nM) inactive: -0.63; (compound concentration: 2 uM) inactive: -1.08; (compound concentration: 10 uM) inactive: -0.483.
For `CC(C)(C)NCC(O)c1ccc(O)c(NC(N)=O)c1` (stereo not drawn) [carbuterol], the TEAD-luciferase reporter activity is inactive: -0.851 (compound concentration: 200 nM), inactive: -0.261 (compound concentration: 2 uM) and inactive: -0.699 (compound concentration: 10 uM).
On the same counts, the results for `CC(C)(Oc1ccc(Cl)cc1)C(=O)O` [moroxybrate] are inactive: -0.732, inactive: 1.09 and inactive: -1.14.
